Among the data in PMC8526623 are binding values, retold here.

By UniProt entry, the sequences of proteins in these tests, tags left out.
UniProt Q92576: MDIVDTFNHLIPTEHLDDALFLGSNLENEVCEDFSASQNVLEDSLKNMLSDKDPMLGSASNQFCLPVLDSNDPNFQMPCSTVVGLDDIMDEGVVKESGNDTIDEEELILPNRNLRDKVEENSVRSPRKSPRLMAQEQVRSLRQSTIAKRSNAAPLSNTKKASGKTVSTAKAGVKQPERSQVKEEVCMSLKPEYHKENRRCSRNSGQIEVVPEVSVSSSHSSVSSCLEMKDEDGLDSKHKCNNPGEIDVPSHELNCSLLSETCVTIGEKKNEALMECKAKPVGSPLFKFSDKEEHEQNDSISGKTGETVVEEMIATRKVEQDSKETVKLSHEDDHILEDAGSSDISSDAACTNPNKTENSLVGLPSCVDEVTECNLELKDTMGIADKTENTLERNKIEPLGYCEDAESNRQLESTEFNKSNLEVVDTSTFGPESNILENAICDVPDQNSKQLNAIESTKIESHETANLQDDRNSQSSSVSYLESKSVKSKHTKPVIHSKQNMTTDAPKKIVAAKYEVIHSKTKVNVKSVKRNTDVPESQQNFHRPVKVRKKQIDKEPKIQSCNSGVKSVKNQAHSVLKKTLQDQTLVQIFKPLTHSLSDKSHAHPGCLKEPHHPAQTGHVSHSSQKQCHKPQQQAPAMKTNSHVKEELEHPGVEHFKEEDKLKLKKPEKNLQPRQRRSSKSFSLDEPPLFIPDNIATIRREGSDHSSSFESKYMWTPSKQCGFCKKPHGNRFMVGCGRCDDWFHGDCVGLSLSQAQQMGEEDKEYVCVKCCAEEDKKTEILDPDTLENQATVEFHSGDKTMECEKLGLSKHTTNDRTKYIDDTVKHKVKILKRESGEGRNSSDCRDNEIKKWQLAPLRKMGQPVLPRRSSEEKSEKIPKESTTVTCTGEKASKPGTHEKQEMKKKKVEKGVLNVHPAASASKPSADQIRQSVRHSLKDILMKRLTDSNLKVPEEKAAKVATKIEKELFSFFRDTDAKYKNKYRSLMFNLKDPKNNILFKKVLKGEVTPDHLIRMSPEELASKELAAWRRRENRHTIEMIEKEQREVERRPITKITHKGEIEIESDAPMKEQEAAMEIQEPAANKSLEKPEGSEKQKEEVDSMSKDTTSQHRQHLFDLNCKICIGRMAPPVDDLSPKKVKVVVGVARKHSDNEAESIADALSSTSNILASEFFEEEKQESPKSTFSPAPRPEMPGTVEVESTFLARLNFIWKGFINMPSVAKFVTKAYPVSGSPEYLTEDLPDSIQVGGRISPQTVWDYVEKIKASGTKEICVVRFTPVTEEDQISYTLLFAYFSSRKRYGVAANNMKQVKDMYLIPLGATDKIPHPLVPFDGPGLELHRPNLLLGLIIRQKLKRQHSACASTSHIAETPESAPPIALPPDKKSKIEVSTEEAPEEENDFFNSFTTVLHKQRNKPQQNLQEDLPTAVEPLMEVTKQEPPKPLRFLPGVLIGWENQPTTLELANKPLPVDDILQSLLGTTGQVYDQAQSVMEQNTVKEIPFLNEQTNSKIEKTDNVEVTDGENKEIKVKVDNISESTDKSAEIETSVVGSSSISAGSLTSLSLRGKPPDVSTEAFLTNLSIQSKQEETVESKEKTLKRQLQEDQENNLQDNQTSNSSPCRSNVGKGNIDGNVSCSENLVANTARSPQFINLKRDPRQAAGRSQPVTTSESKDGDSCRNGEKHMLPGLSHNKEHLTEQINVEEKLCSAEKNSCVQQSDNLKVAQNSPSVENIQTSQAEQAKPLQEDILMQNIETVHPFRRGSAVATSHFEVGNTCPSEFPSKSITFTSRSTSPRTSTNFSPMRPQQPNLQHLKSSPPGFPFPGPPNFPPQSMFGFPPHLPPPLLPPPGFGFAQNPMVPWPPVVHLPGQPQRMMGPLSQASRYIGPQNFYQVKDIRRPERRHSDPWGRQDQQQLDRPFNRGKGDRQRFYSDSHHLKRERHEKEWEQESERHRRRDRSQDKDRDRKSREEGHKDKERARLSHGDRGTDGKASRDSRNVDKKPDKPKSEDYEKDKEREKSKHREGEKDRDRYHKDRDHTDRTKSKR

These are yes or no findings as the source states them, for the method shown. Binding seen in cells or lysates may run through a third protein. These calls come from enrichment with a bait or labelling near it, and not all partners need be listed.

The target in this assay is FLAG-PHF3 (PHD-finger protein 3) (human) (UniProt Q92576). Kind of assay: affinity purification with mass spectrometry; FLAG-PHF3 expressed in HEK293T; anti-FLAG M2 magnetic beads, lysate with benzonase; empty vector as control; SAINT-MS1.

B1: RBM15 (protein, UniProt Q96T37 1-977)
chain: MRTAGRDPVPRRSPRWRRAVPLCETSAGRRVTQLRGDDLRRPATMKGKERSPVKAKRSRGGEDSTSRGERSKKLGGSGGSNGSSSGKTDSGGGSRRSLHLDKSSSRGGSREYDTGGGSSSSRLHSYSSPSTKNSSGGGESRSSSRGGGGESRSSGAASSAPGGGDGAEYKTLKISELGSQLSDEAVEDGLFHEFKRFGDVSVKISHLSGSGSGDERVAFVNFRRPEDARAAKHARGRLVLYDRPLKIEAVYVSRRRSRSPLDKDTYPPSASVVGASVGGHRHPPGGGGGQRSLSPGGAALGYRDYRLQQLALGRLPPPPPPPLPRDLERERDYPFYERVRPAYSLEPRVGAGAGAAPFREVDEISPEDDQRANRTLFLGNLDITVTESDLRRAFDRFGVITEVDIKRPSRGQTSTYGFLKFENLDMSHRAKLAMSGKIIIRNPIKIGYGKATPTTRLWVGGLGPWVPLAALAREFDRFGTIRTIDYRKGDSWAYIQYESLDAAHAAWTHMRGFPLGGPDRRLRVDFADTEHRYQQQYLQPLPLTHYELVTDAFGHRAPDPLRGARDRTPPLLYRDRDRDLYPDSDWVPPPPPVRERSTRTAATSVPAYEPLDSLDRRRDGWSLDRDRGDRDLPSSRDQPRKRRLPEESGGRHLDRSPESDRPRKRHCAPSPDRSPELSSSRDRYNSDNDRSSRLLLERPSPIRDRRGSLEKSQGDKRDRKNSASAERDRKHRTTAPTEGKSPLKKEDRSDGSAPSTSTASSKLKSPSQKQDGGTAPVASASPKLCLAWQGMLLLKNSNFPSNMHLLQGDLQVASSLLVEGSTGGKVAQLKITQRLRLDQPKLDEVTRRIKVAGPNGYAILLAVPGSSDSRSSSSSAASDTATSTQRPLRNLVSYLKQKQAAGVISLPVGGNKDKENTGVLHAFPPCEFSQQFLDSPAKALAKSEEDYLVMIIVRGFGFQIGVRYENKKRENLALTLL
On to B1, for which the binding result was “binds”.

B2: ZNF326 (protein, UniProt Q5BKZ1 1-582)
chain: MDFEDDYTHSACRNTYQGFNGMDRDYGPGSYGGMDRDYGHGSYGGQRSMDSYLNQSYGMDNHSGGGGGSRFGPYESYDSRSSLGGRDLYRSGYGFNEPEQSRFGGSYGGRFESSYRNSLDSFGGRNQGGSSWEAPYSRSKLRPGFMEDRGRENYSSYSSFSSPHMKPAPVGSRGRGTPAYPESTFGSRNYDAFGGPSTGRGRGRGHMGDFGSIHRPGIVVDYQNKSTNVTVAAARGIKRKMMQPFNKPSGTFIKKPKLAKPMEKISLSKSPTKTDPKNEEEEKRRIEARREKQRRRREKNSEKYGDGYRMAFTCSFCKFRTFEEKDIELHLESSSHQETLDHIQKQTKFDKVVMEFLHECMVNKFKKTSIRKQQTNNQTEVVKIIEKDVMEGVTVDDHMMKVETVHCSACSVYIPALHSSVQQHLKSPDHIKGKQAYKEQIKRESVLTATSILNNPIVKARYERFVKGENPFEIQDHSQDQQIEGDEEDEEKIDEPIEEEEDEDEEEEAEEVGEVEEVEEVEEVREGGIEGEGNIQGVGEGGEVGVVGEVEGVGEVEEVEELEEETAKEEPADFPVEQPEEN
For the molecule B2, the binding entry is “binds”.
